Test results reported in publication PMC4855186, “Characterization of primary human hepatocyte spheroids as a model system for drug-induced liver injury, liver function and disease” (Scientific Reports, 2016).

Key:
PHH spheroids = experiment: Chronic toxicity assay in PHH spheroids, viability by cellular ATP content; assay type: cell-based, human
Experimental: Cryopreserved PHH (obtained from […], France or Bioreclamation IVT, USA) or fresh hepatocytes (obtained from patients subject to liver resections at Huddinge University Hospital, Stockholm, Sweden) were used for formation of spheroid cultures. Hepatocytes obtained from patient livers were isolated as previously described. Use of the liver specimens for this purpose was approved by the Ethics Committee at Karolinska Institutet ([…] Stockholm) and studies were carried out in accordance with the approved guidelines. Written informed consent was obtained from all donors of liver material. Cells were seeded into ultra-low attachment 96-well plates (Corning) at 1,500 viable cells per well and subsequently centrifuged at 100 × g for 2 min. […] Cell viability was assessed by determining the ATP content of single PHH spheroids with the CellTiter-Glo Luminescent Cell Viability Assay (Promega, Sweden). At the same time-points, cell culture medium was collected and albumin concentrations were determined by ELISA (Bethyl laboratories, USA). Absolute ATP and albumin values were normalized to spheroid volumes as determined from bright field imaging to compensate for compaction. […] Cell viability was assessed by determining the ATP content as indicated above. EC50 values were determined using GraphPad Prism (GraphPad Software, USA).

[1] = human plasma Cmax; ref 21 (amiodarone), 22 (bosentan), 23 (diclofenac), 24 (fialuridine), 25 (tolcapone); read-out: In vivo Cmax; cited from earlier work

In the case of `CCCCc1oc2ccccc2c1C(=O)c1cc(I)c(OCCN(CC)CC)c(I)c1` [Amiodarone, amiodarone], the “Fold changes in EC50 vs. 48 h (8 d)” value (PHH spheroids; 8 d vs 48 h exposure) is given as 15.4 fold, the “Fold changes in EC50 vs. 48 h (28 d)” value (PHH spheroids; 28 d vs 48 h exposure) is given as 62.5 fold and the Cmax [1] is given as 800 nM.
